Reference: patent publication US20090232783
At least one result comes from cells or an extract, where the contact may be indirect.

Target: Nuclear ferritin-H (K562 nuclear extract, crude or heat/proteinase K enriched) (Homo sapiens) (UniProt P02794)
Assay: EMSA
Details: protein in an extract; label: 32P

“AACTCCTAAGCCAGTGCCAGAAGAGCCAAGGACAGGT (double strand) [beta-globin -164/-128 wt oligo]”: binds.
